Data taken from paper PMC5068889.
No constants are given. Whether binding was seen depends on the method and setting. In cells and extracts the contact can be indirect. Some entries that bind do so weakly or less than the wild type.

Protein sequences, listed by entry. Tags and fused reporters are not part of them.
UniProt Q4QQW4: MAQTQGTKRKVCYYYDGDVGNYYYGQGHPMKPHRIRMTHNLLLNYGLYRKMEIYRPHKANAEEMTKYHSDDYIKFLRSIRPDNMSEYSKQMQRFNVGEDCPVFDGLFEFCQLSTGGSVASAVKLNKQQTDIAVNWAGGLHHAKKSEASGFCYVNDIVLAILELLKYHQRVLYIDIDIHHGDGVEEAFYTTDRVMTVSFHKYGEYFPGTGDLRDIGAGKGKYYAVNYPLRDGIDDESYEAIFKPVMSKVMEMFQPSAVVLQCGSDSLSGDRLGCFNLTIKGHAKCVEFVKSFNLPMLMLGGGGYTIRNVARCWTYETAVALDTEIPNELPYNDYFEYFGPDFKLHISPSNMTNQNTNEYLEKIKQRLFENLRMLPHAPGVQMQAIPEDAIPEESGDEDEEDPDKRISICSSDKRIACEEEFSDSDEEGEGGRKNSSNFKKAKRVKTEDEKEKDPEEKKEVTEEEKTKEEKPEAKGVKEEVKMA
UniProt Q8VIB2: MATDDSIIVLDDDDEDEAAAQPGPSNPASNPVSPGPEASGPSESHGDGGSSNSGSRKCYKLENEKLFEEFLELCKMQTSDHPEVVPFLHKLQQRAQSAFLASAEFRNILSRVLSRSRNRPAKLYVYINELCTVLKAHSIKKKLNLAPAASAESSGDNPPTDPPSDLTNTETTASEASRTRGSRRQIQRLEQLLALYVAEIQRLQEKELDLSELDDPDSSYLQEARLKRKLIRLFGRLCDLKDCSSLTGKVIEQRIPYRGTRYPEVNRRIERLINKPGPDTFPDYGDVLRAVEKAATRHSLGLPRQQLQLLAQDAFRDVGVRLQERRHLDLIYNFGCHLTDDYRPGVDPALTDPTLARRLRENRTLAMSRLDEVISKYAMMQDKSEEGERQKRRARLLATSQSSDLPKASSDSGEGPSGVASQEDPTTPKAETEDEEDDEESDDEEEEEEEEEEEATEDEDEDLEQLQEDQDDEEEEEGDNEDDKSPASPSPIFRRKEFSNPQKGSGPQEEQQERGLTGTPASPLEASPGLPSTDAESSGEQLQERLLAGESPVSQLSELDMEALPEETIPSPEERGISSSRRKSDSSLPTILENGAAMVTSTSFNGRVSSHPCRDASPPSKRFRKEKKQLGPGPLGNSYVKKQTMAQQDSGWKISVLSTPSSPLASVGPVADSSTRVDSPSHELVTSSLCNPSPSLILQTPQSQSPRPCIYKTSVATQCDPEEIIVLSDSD

Biological target: HDAC1 (rat (endogenous in HiB5)) (UniProt Q4QQW4)
Assay: co-IP; nuclear protein extract (200 ug) of differentiated HiB5 cells (untreated, or transduced with LVV carrying non-target RNA or HDAC1 shRNAi); precipitated overnight at 4 °C with rabbit anti-HDAC1 antibody, protein G magnetic beads; rabbit IgG as negative control; DAXX detected by western blot

- binding: binds
Substance: DAXX (from UniProt Q8VIB2 1-731)
